# Assay results as given in patent publication US10442796B2, “2,3,5-substituted thiophene compound as protein kinase inhibitor” (KOREA INSTITUTE OF SCIENCE AND TECHNOLOGY, priority 2016, dated 2019).
# At least one compound was matched to its structure with a doubt left.
# System: GAK2
# Experiment: Kinase inhibitory activity, full kinase panel
# Type: biochemical
# Conditions: single concentration of 1 μM
smiles,measurement,value
"Cc1ccc(C#Cc2cc(NC(N)=O)c(C(=O)N[C@H]3CCCNC3)s2)cc1 [Example 24, (S)—N-(piperidin-3-yl)-5-(p-tolylethynyl)-3-ureidothiophene-2-carboxamide]",%Inhibitory ability,73%
